This is one part of the list.

Protein sequences, listed by entry. Tags and fused reporters are not part of them. Lines headed by an entry give the natural chain unless they say otherwise; changes in a name come on top.
UniProt Q9UBB5, whole entry, looked up: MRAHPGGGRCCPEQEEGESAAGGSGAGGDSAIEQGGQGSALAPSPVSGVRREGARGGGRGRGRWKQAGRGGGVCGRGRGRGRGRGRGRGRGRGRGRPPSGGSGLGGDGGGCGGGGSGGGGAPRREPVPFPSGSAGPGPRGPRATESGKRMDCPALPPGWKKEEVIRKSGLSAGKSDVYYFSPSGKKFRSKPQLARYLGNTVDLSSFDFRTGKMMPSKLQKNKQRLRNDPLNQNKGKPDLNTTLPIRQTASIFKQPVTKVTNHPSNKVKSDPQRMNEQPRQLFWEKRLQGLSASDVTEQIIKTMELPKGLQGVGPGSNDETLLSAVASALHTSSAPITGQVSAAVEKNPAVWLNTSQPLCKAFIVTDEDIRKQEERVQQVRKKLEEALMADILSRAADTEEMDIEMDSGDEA
UniProt Q96RN5: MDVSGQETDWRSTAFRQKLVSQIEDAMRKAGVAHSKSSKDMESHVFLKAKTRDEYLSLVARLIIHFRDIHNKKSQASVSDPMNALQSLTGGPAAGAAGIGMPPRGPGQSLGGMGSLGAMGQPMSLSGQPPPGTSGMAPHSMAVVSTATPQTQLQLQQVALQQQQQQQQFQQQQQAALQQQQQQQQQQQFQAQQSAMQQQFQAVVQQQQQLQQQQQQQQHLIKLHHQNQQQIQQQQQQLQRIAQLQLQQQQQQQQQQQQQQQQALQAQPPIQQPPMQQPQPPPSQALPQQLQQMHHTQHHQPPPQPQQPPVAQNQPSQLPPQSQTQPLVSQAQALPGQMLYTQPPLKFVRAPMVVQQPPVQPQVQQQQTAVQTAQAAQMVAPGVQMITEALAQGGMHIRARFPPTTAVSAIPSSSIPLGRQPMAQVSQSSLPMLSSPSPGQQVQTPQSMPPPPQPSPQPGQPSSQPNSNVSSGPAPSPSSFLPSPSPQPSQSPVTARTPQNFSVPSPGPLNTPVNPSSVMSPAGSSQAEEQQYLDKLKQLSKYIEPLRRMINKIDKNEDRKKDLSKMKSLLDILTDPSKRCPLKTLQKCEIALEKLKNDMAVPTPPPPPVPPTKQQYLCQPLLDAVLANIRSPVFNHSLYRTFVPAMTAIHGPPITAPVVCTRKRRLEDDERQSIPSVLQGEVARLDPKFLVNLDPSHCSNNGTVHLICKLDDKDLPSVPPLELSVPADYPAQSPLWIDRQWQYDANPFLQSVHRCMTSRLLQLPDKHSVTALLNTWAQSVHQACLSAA
UniProt Q8NI22: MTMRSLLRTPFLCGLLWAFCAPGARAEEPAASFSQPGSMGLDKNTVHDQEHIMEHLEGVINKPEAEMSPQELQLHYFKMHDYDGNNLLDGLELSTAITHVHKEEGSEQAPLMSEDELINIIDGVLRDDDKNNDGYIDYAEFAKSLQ
UniProt P49736, whole entry, looked up: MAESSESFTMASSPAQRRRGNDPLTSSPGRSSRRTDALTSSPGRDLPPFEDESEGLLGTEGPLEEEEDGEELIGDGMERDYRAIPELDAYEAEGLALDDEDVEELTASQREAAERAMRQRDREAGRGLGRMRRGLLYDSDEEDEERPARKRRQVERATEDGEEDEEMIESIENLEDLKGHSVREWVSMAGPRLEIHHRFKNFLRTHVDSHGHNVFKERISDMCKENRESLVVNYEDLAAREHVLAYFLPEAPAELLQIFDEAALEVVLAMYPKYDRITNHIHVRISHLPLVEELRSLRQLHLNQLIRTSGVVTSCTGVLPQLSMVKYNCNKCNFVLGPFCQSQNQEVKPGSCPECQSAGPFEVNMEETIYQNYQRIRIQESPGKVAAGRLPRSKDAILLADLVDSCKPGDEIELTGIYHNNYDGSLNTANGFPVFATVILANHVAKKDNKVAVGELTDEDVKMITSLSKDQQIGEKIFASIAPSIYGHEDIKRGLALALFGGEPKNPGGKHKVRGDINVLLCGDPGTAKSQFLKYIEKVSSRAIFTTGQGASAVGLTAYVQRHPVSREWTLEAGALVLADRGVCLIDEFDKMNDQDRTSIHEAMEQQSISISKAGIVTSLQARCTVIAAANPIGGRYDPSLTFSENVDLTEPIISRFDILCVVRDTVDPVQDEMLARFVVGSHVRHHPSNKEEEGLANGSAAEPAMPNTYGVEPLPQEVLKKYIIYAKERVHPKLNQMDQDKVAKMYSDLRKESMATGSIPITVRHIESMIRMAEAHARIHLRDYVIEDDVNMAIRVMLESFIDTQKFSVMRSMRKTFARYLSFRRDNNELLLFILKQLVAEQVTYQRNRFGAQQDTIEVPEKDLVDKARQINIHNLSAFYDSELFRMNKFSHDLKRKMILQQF
UniProt Q16798: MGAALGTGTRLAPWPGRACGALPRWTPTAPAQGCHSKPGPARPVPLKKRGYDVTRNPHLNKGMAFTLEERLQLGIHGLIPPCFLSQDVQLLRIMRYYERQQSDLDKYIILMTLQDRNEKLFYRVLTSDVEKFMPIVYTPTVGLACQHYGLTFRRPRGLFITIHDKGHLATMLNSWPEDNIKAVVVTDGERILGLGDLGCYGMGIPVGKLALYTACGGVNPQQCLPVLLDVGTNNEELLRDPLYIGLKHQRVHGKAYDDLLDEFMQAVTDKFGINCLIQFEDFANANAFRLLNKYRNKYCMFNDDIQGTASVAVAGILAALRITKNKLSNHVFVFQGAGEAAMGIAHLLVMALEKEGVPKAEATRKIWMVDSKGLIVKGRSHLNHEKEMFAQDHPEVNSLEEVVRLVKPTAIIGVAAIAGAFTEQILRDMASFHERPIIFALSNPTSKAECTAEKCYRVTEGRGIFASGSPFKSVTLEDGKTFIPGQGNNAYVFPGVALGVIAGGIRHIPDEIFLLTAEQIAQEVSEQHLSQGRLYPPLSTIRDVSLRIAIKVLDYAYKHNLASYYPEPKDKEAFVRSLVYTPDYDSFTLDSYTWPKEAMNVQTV
UniProt P51608, whole entry, looked up: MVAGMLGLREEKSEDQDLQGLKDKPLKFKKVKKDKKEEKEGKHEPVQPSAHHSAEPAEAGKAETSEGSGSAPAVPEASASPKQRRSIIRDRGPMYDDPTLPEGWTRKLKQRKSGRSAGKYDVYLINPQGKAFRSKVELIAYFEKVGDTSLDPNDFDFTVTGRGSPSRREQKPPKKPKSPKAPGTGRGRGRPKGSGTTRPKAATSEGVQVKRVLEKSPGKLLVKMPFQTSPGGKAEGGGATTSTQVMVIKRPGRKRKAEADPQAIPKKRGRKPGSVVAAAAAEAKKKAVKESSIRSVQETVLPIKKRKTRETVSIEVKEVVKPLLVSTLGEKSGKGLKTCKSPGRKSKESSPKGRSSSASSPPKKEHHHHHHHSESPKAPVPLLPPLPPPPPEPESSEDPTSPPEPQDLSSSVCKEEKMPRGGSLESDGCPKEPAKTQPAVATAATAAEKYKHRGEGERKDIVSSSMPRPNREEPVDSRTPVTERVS
UniProt Q6ZWT7: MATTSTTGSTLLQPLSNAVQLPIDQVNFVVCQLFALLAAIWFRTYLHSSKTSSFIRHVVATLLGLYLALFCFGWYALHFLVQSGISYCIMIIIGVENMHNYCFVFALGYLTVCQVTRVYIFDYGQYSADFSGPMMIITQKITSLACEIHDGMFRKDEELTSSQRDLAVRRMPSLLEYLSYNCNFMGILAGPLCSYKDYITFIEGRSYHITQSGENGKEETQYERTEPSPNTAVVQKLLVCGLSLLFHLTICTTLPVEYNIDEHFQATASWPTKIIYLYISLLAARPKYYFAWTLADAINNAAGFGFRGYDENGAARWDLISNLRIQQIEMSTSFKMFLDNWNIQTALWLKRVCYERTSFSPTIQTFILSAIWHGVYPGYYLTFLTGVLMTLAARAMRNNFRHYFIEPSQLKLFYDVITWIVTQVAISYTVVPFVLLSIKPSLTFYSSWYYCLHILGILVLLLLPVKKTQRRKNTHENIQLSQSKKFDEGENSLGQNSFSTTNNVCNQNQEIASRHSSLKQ
UniProt P33991: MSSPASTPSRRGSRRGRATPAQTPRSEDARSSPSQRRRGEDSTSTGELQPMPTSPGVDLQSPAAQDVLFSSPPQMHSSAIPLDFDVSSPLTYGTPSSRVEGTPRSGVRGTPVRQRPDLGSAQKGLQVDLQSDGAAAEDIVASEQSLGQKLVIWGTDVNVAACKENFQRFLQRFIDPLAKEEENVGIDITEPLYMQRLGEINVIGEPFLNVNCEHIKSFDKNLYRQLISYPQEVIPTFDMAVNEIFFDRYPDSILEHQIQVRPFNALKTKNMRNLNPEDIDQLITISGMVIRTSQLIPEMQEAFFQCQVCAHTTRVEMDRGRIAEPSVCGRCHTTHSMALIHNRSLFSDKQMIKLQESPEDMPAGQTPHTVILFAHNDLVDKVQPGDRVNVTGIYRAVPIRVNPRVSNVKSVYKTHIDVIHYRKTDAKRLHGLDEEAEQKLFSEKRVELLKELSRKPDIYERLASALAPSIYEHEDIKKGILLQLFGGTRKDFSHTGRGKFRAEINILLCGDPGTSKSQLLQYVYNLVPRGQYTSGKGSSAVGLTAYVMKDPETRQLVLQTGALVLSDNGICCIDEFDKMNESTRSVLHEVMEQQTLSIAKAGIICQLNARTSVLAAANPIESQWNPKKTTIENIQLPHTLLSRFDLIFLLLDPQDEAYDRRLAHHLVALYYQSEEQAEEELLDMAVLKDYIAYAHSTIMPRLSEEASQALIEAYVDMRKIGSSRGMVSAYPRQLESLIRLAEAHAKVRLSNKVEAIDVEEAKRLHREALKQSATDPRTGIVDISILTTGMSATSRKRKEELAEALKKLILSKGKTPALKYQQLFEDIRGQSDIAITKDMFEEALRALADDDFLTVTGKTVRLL
UniProt Q16626: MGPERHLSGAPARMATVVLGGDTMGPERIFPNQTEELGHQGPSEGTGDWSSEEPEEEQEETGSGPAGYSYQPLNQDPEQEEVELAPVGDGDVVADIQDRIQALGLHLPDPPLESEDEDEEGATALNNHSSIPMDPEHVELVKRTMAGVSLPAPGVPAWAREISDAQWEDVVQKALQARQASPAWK
UniProt P55081: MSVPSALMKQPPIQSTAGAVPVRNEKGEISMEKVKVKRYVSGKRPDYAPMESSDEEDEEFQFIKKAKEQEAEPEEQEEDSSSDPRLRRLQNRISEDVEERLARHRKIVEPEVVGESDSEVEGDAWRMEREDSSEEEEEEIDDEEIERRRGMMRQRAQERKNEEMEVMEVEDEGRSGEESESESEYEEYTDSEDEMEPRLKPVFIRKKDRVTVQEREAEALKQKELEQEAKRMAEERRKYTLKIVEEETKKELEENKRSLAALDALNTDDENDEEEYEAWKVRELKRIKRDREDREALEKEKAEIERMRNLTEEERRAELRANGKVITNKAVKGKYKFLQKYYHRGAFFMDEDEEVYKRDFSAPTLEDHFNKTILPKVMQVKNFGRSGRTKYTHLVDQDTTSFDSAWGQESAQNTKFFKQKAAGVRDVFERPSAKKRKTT
UniProt Q96HR3: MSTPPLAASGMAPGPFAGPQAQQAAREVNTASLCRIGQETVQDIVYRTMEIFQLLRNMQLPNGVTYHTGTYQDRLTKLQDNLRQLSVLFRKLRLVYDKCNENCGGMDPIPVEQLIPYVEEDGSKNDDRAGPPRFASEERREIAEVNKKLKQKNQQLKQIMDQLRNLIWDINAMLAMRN
UniProt Q86U44, whole entry, looked up: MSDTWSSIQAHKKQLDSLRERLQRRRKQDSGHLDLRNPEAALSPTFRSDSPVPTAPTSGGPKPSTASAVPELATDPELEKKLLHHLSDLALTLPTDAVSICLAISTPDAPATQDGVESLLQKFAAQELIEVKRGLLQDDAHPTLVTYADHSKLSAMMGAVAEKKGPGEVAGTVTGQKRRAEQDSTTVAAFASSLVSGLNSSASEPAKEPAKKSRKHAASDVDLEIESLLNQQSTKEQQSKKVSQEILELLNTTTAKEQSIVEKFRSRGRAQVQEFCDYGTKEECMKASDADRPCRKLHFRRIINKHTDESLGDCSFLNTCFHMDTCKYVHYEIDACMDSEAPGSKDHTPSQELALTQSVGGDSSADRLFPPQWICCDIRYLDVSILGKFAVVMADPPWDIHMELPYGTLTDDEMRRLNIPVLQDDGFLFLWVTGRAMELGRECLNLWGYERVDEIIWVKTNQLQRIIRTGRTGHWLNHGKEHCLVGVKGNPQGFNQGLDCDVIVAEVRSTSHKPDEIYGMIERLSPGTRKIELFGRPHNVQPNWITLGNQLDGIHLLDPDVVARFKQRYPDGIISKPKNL
UniProt Q9BUT9: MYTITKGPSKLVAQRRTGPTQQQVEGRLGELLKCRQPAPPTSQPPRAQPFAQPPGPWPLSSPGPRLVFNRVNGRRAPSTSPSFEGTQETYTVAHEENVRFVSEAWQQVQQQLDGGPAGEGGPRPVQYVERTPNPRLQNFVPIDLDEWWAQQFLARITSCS
UniProt Q14696: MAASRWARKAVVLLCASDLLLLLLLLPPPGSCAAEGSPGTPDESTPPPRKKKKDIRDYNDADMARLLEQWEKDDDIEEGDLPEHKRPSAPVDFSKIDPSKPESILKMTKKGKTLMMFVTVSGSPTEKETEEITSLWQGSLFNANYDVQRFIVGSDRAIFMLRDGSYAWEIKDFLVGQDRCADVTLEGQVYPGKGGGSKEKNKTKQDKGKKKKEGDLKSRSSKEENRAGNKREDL

Compound in the first experiment: Cc1nc(Nc2ncc(C(=O)Nc3c(C)cccc3Cl)s2)cc(N2CCN(CCO)CC2)n1 [dasatinib]
The experiment can be described thus: log2 fold change, soluble protein after heating vs DMSO (PISA); higher = thermal stabilisation; K562 lysate, 10 uM; active = over 0.2 and 3.5 SD of the protein, either way, in both replicates (recomputed). In short, it runs like this: (§1)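 Dounce homogenisation of K562 pellets in PBS pH 7.4 with 1 mM MgCl2 produced a crude extract, used at 1 mg/mL protein. Exposure to 10 μM compound lasted 30 min, and aliquots were then heated for 3 min across 48°C-58°C, pooled and brought to 0.5% NP-40 at 4°C. The supernatant after 21,000xg for 90 min was quantified by TMTpro 16plex LC-MS/MS with channel sums equalised. Duplicate values are given as log-two fold change in thermal stability relative to solvent controls.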
MBD2 (UniProt Q9UBB5): the log2 fold change is inactive: -0.039.
Still for that read-out and setting: the result for MED15 (UniProt Q96RN5) reads inactive: 0.
Same read-out and setting: for MCFD2 (UniProt Q8NI22) the value was inactive: 0.035; for MCM2 (UniProt P49736), inactive: -0.026; for MEAF6 isoform 3 (UniProt Q9HAF1), inactive: -0.002.
On the same count and under the same terms, for ME3 (UniProt Q16798) the value was inactive: 0.034; for MECP2 isoform 2 (UniProt P51608), inactive: 0.03; for MBOAT2 (UniProt Q6ZWT7), inactive: -0.178.
As to MCM4 (UniProt P33991), the log2 fold change was inactive: -0.063.
Still for that read-out and setting: the result for MEA1 (UniProt Q16626) reads inactive: -0.028.
The same measure, in the same setting: the result for MFAP1 (UniProt P55081) reads inactive: 0.037; that for MED30 (UniProt Q96HR3), inactive: 0.024; that for METTL3 (UniProt Q86U44), inactive: 0.001.
As for MCRIP1 (UniProt I3L4Q0), the log2 fold change was inactive: 0.011.
Same read-out and setting: for MCRIP2 (UniProt Q9BUT9) the value was inactive: 0.151; for MEF2D (UniProt Q14814), inactive: -0.035.
In the case of MESD (UniProt Q14696), the log2 fold change was inactive: -0.028.

Compound in a further experiment: Cc1ncc(-c2ccnc(Nc3ccc(S(C)(=O)=O)cc3)n2)n1C(C)C
The description is as above. The essentials: as §1
On to MCMBP (UniProt Q9BTE3), for which the log2 fold change was inactive: -0.028.
The same measure, in the same setting: the result for MED20 (UniProt Q9H944) reads inactive: 0.028; that for METTL5 (UniProt Q9NRN9), inactive: -0.002.
Same read-out and setting: for MDH2 (UniProt P40926) the value was inactive: -0.024.
With METTL14 (UniProt Q9HCE5), the log2 fold change is inactive: 0.007.
In the case of MECR (UniProt Q9BV79), the log2 fold change was inactive: -0.004.
As for METAP1D (UniProt Q6UB28), the log2 fold change was inactive: 0.019.
On the same count and under the same terms, the result for MEF2A (UniProt Q02078) reads inactive: 0.099; that for MFSD10 (UniProt Q14728), inactive: 0.024; that for MCL1 (UniProt Q07820), inactive: -0.284.
For the target MCM6 (UniProt Q14566), the log2 fold change was inactive: -0.018.
On the same count and under the same terms, for MED7 (UniProt O43513) the value was inactive: 0.014.
Same read-out and setting: for MFSD4B (UniProt Q5TF39) the value was inactive: -0.032; for ME2 (UniProt P23368), inactive: 0.031; for METTL2A (UniProt Q96IZ6), inactive: -0.014.
The same measure, in the same setting: for MFN2 (UniProt O95140) the value was inactive: 0.015.
For MED8 isoform 2 (UniProt Q96G25), the log2 fold change is inactive: -0.007.
Same read-out and setting: for MED4 (UniProt Q9NPJ6) the value was inactive: 0.036; for METTL16 (UniProt Q86W50), inactive: 0.027; for MEF2C isoform 5 (UniProt Q06413), inactive: 0.026.
The same measure, in the same setting: the result for MCUR1 (UniProt Q96AQ8) reads inactive: 0.014; that for METAP2 (UniProt P50579), inactive: 0.044; that for MBD3 (UniProt O95983), inactive: 0.019.
For MBD2 (UniProt Q9UBB5), the log2 fold change is inactive: 0.
As for MED15 (UniProt Q96RN5), the log2 fold change was inactive: 0.015.
Same read-out and setting: the result for MCFD2 (UniProt Q8NI22) reads inactive: 0.108; that for MCM2 (UniProt P49736), inactive: 0.006; that for MEAF6 isoform 3 (UniProt Q9HAF1), inactive: -0.036.
Same read-out and setting: for ME3 (UniProt Q16798) the value was inactive: -0.33; for MECP2 isoform 2 (UniProt P51608), inactive: 0.035.
The same measure, in the same setting: the result for MBOAT2 (UniProt Q6ZWT7) reads inactive: 0.024.
Turning to MCM4 (UniProt P33991), the log2 fold change is inactive: -0.018.
Turning to MEA1 (UniProt Q16626), the log2 fold change is inactive: 0.015.
The same measure, in the same setting: the result for MFAP1 (UniProt P55081) reads inactive: -0.056; that for MED30 (UniProt Q96HR3), inactive: -0.091.
Consider METTL3 (UniProt Q86U44), for which the log2 fold change was inactive: 0.043.
The same measure, in the same setting: for MCRIP1 (UniProt I3L4Q0) the value was inactive: 0.026; for MCRIP2 (UniProt Q9BUT9), inactive: 0.067.
As to MEF2D (UniProt Q14814), the log2 fold change is inactive: -0.049.
On the same count and under the same terms, the result for MESD (UniProt Q14696) reads inactive: -0.009.

Compound in the next experiment: Cn1cc(-c2ccc3c(c2)CCN3C(=O)Cc2cccc(C(F)(F)F)c2)c2c(N)ncnc21
Described as above. In short, it runs like this: as §1
As for MCMBP (UniProt Q9BTE3), the log2 fold change was inactive: 0.008.
The same measure, in the same setting: for MED20 (UniProt Q9H944) the value was inactive: 0.009; for METTL5 (UniProt Q9NRN9), inactive: 0.013; for MDH2 (UniProt P40926), inactive: -0.007.
On the same count and under the same terms, the result for METTL14 (UniProt Q9HCE5) reads inactive: -0.029; that for MECR (UniProt Q9BV79), inactive: 0.02; that for METAP1D (UniProt Q6UB28), inactive: -0.059.
In the case of MEF2A (UniProt Q02078), the log2 fold change is inactive: 0.048.
As for MFSD10 (UniProt Q14728), the log2 fold change was inactive: 0.033.
The same measure, in the same setting: the result for MCL1 (UniProt Q07820) reads inactive: 0.211; that for MCM6 (UniProt Q14566), inactive: 0.01; that for MED7 (UniProt O43513), inactive: -0.038.
As for MFSD4B (UniProt Q5TF39), the log2 fold change is inactive: 0.088.
As for ME2 (UniProt P23368), the log2 fold change is inactive: 0.034.
Take METTL2A (UniProt Q96IZ6): the log2 fold change was inactive: 0.03.
The same measure, in the same setting: the result for MFN2 (UniProt O95140) reads inactive: 0.039; that for MED8 isoform 2 (UniProt Q96G25), inactive: 0.044; that for MED4 (UniProt Q9NPJ6), inactive: 0.034.
On the same count and under the same terms, the result for METTL16 (UniProt Q86W50) reads inactive: 0.01; that for MEF2C isoform 5 (UniProt Q06413), inactive: 0.027.
Still for that read-out and setting: for MCUR1 (UniProt Q96AQ8) the value was inactive: 0.002; for METAP2 (UniProt P50579), inactive: 0; for MBD3 (UniProt O95983), inactive: 0.021.
Consider MBD2 (UniProt Q9UBB5), for which the log2 fold change is inactive: 0.069.
The same measure, in the same setting: the result for MED15 (UniProt Q96RN5) reads inactive: 0.02; that for MCFD2 (UniProt Q8NI22), inactive: 0.015.
The same measure, in the same setting: the result for MCM2 (UniProt P49736) reads inactive: -0.009.
The same measure, in the same setting: for MEAF6 isoform 3 (UniProt Q9HAF1) the value was inactive: -0.025; for ME3 (UniProt Q16798), inactive: -0.052; for MECP2 isoform 2 (UniProt P51608), inactive: -0.001.
For the target MBOAT2 (UniProt Q6ZWT7), the log2 fold change is inactive: -0.027.
On the same count and under the same terms, for MCM4 (UniProt P33991) the value was inactive: 0.004.
Consider MEA1 (UniProt Q16626), for which the log2 fold change is inactive: 0.014.
Turning to MFAP1 (UniProt P55081), the log2 fold change is inactive: 0.001.
Same read-out and setting: for MED30 (UniProt Q96HR3) the value was inactive: -0.006.
Still for that read-out and setting: for METTL3 (UniProt Q86U44) the value was inactive: 0.019; for MCRIP1 (UniProt I3L4Q0), inactive: 0.024.
The same measure, in the same setting: the result for MCRIP2 (UniProt Q9BUT9) reads inactive: -0.088; that for MEF2D (UniProt Q14814), inactive: -0.029.
Turning to MESD (UniProt Q14696), the log2 fold change was inactive: 0.02.

Source of the values: the supplement of paper PMC10849652.
